Measurements published in PubChem BioAssay (EPA / NIEHS).
Inconclusive results, whose numbers are uncertain, are shown with a selection of clear calls. Potencies beside an inconclusive call are fits to weak or partial responses and may not hold up. Active and inactive are the calls of the source. Rule for the calls: active = hit-call score of the fitted dose curve at least 0.9, where 1 is the maximum; inconclusive = response in the unintended direction; inactive = score below 0.9.

The chains behind the UniProt entries cited, without tags or fusion partners. Where a name states a change or a piece, a line headed by the entry shows the natural chain unless it says otherwise.
UniProt P10827: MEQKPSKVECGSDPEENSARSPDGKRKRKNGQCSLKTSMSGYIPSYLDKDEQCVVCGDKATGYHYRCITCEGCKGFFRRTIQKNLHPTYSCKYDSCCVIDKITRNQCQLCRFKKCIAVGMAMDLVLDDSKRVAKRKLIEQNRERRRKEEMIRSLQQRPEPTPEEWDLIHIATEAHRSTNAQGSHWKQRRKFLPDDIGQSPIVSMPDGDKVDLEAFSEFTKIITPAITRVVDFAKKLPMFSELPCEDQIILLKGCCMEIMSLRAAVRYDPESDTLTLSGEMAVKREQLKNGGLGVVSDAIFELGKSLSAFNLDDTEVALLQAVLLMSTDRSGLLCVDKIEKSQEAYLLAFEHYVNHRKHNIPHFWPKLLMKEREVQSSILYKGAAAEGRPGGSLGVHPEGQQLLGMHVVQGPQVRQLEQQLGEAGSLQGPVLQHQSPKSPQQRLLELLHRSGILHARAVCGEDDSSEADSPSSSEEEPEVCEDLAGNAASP
UniProt P11473: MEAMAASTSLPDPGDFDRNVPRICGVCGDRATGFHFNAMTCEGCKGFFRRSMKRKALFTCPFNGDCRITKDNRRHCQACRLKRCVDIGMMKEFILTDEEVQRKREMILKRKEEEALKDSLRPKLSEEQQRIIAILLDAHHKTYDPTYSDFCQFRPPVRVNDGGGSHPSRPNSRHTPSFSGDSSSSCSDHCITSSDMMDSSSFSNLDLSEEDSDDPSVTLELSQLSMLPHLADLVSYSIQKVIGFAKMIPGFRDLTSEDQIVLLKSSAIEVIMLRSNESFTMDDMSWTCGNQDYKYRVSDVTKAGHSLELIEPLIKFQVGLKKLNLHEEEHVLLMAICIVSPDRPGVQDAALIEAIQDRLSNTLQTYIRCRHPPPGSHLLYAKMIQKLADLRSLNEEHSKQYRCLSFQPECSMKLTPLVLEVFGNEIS

biological target: human Thyroid Receptor alpha (THRa1), THRA (gene 7067) (UniProt P10827); test: ATG_THRa1_TRANS: Attagene TRANS-FACTORIAL HepG2 Assay for human Thyroid Receptor alpha (THRa1) (AID 2283014)
Method in brief: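 Measured here is mRNA from a GAL4-UAS reporter in transfected HepG2 cells carrying a Gal4-fused receptor, 24 h post-dose. DMSO served as negative control and baseline.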

| Structure (SMILES) | AC50 | outcome |
| --- | --- | --- |
| CC(C)c1ccc(C(=O)N=C(N)N)cc1S(C)(=O)=O |  | inactive |
| CCCCCCCCCO | inconclusive: 100 µM |  |
| C=C(C)C(=O)OCCOC(=O)C(=C)C | inconclusive: 100 µM |  |
| Fc1ccccc1[C@@H](F)COC1CCC(Nc2ncnc3[nH]ncc23)CC1 (stereo partly specified) | inconclusive: 1.58 µM |  |
| CCCOC(=O)c1c(Cl)c(Cl)c(Cl)c(Cl)c1C(=O)OCCC |  | inactive |
| CC(C)(C)c1ccc(O)c(C(C)(C)C)c1 | active: 11.1 µM |  |
| C/C=C(\C)C(=O)OCC/C=C\CC | inconclusive: 2.98 µM |  |
| O=c1cc(-c2ccccc2)oc2cc(O)cc(O)c12 |  | inactive |
| OCC(F)(F)C(F)(F)C(F)(F)C(F)(F)C(F)(F)C(F)F | inconclusive: 150 µM |  |
| CC(=O)C1(C)CC2=C(CCCC2(C)C)CC1C (stereo unspecified) | inconclusive: 0.596 µM |  |
| CC(C)(C)c1cccc(C(C)(C)C)c1O |  | inactive |
| CCOC(=O)c1ccc(N)cc1 |  | inactive |
| O=C(Nc1ccc(Cl)c(Cl)c1)c1cc(Cl)cc(Cl)c1O | active: 1.35 µM |  |
| O=C(O)C(F)(F)C(F)(F)C(F)(F)OC(F)(F)F | inconclusive: 150 µM |  |
| CN(C)C(=O)Nc1ccccc1 |  | inactive |
| COC(=O)[C@]1(C)CCC[C@@]2(C)[C@H]1CC=C1C=C(C(C)C)CC[C@@H]12 | inconclusive: 100 µM |  |
| O=C(O)C(c1ccc(Cl)cc1)c1ccc(Cl)cc1 | inconclusive: 100 µM |  |
| CCOC(C=C(C)CCC=C(C)C)OCC | inconclusive: 100 µM |  |
| C=C(C)C(=O)OCCOCCOCCOCCOC(=O)C(=C)C | inconclusive: 17.6 µM |  |
| CC(=O)c1ccccc1O | inconclusive: 100 µM |  |

biological target: human Vitamin D Receptor (VDR), VDR (gene 7421) (UniProt P11473); test: ATG_VDR_TRANS: Attagene TRANS-FACTORIAL HepG2 Assay for human Vitamin D Receptor (VDR) (AID 2283022)
Method in brief: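 Multiplexed TRANS reporter in HepG2; 24 h treatment; reporter mRNA by RT-PCR plus capillary electrophoresis; upregulation scored relative to DMSO.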

| Structure (SMILES) | AC50 | outcome |
| --- | --- | --- |
| CCOc1ccc(NC(=O)CC(C)=O)cc1 | inconclusive: 19.8 µM |  |
| CC(C)c1ccc(C(=O)N=C(N)N)cc1S(C)(=O)=O | inconclusive: 0.001 µM |  |
| CCCCCCCCCO |  | inactive |
| C=C(C)C(=O)OCCOC(=O)C(=C)C |  | inactive |
| NCC1CCCC(CN)C1 (stereo unspecified) | inconclusive: 100 µM |  |
| C/C=C(\C)C(=O)OCC/C=C\CC |  | inactive |
| CC(=O)C1(C)CC2=C(CCCC2(C)C)CC1C (stereo unspecified) | inconclusive: 100 µM |  |
| Nc1ccc(Oc2ccc(N)c(N)c2)cc1 | inconclusive: 100 µM |  |
| C1CCOC1 |  | inactive |
| CCN=C1C=CC(=C(c2ccc(N(CC)CC)cc2)c2ccc(N(CC)CC)cc2)c2ccccc21 | inconclusive: 0.000968 µM |  |
| COC(=O)[C@]1(C)CCC[C@@]2(C)[C@H]1CC=C1C=C(C(C)C)CC[C@@H]12 |  | inactive |
| O=C(O)C(c1ccc(Cl)cc1)c1ccc(Cl)cc1 | inconclusive: 100 µM |  |
| CCOC(C=C(C)CCC=C(C)C)OCC | inconclusive: 100 µM |  |
| C=C(C)C(=O)OCCOCCOCCOCCOC(=O)C(=C)C | inconclusive: 0.244 µM |  |
| CC(=O)c1ccccc1O | inconclusive: 100 µM |  |
